# Screening data

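Firefly luciferase light from HEK293 cells carrying a huntingtin (HTT) promoter reporter, read after 24 hours of compound exposure, giving single-concentration activity change.
Percent change in reporter signal versus vehicle (0%) down to no light (-100%); more negative values mean stronger inhibition of promoter activity.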

Values are in %.
Common to all entries: at 57.5 µM (top of the series).
Only part of the assay is listed here, not a random draw.

compound: COc1ccc2c(c1)CCc1c(C(=O)Nc3ccc(F)c(Cl)c3)noc1-2
activity change (%): 13.92

compound: Cn1cnc2c(=O)oc3ccc(S(=O)(=O)N4CCN(c5cccc(C(F)(F)F)c5)CC4)cc3c21
activity change (%): -14.41

compound: COc1cc(NC(=O)CCc2c(C)nn(-c3ccc(N4CCCCC4)nn3)c2C)cc(OC)c1OC
activity change (%): 46.39

compound: COc1ccc(C(CC(=O)Nc2cc(OC)c(OC)c(OC)c2)N2Cc3ccccc3C2=O)cc1 (stereo not given)
activity change (%): -27.31

compound: COc1cc(OC)c(NC(=O)Nc2sc3nc4n(c(=O)c3c2C)CCC(C)CC4)cc1Cl (stereo not given)
activity change (%): -10.28

compound: Cc1c(NS(=O)(=O)c2ccc(C(C)(C)C)cc2)c(=O)n(-c2ccccc2)n1C
activity change (%): -15.32

compound: CCOc1ccc(NC(=O)CSc2ncn[nH]2)cc1
activity change (%): -8.937

compound: COc1cccc(CNC(=O)Cc2c(C)c3ccc(OC)c(C)c3oc2=O)c1
activity change (%): -11.64

compound: O=C(Nc1ccc(F)cc1F)c1noc2c1CCc1ccccc1-2
activity change (%): 67.33

compound: O=C(NCc1cccc(Br)c1)C1CCCCN1S(=O)(=O)c1ccc(F)cc1 (stereo not given)
activity change (%): -31.8

compound: Cn1c(=O)c2c(-c3ccccc3)n3c(c2n(C)c1=O)C(c1ccc([N+](=O)[O-])cc1)Nc1ccccc1-3 (stereo not given)
activity change (%): -18.34

compound: Cc1cccc(OCCn2c(-c3ccc(Cl)cc3)nc3ccccc3c2=O)c1C
activity change (%): -6.207

compound: CCOC(=O)c1cccc(NC(=O)CC(c2ccc(F)cc2)N2Cc3ccccc3C2=O)c1 (stereo not given)
activity change (%): -17.59

compound: CC(C)OCCCNC(=O)c1ccc2c(c1)NC(=O)c1ccccc1S2
activity change (%): -52.84

compound: Cc1cccc(CSCCNC(=O)C2CCN(S(=O)(=O)Cc3ccccc3)CC2)c1
activity change (%): -17.79

compound: CCN1CCN(Cc2c(O)ccc3oc(C)c(C(=O)Nc4cccc(Cl)c4C)c23)CC1
activity change (%): -12.5

compound: Cn1cnc2c(=O)oc3ccc(S(=O)(=O)N4CCN(c5cccc(Cl)c5)CC4)cc3c21
activity change (%): -5.676

compound: COC(=O)c1ccc(NC(=O)CC2C(=O)N(c3ccc(C)cc3)C(=O)N2Cc2ccc(OC)cc2)cc1 (stereo not given)
activity change (%): -21.89

compound: Cc1ccc(C(=O)O)cc1-n1c(C)ccc1-c1ccccc1
activity change (%): 1.406

compound: Cc1ccc(F)cc1NC(=O)CCc1c(C)nn(-c2ccc(N3CCCCC3)nn2)c1C
activity change (%): 27.3

compound: Cc1c(Cl)cccc1NC(=O)CCS(=O)(=O)c1ccc2c(c1)CC(C)N2C(=O)C1CC1 (stereo not given)
activity change (%): -47.89

compound: CCOCCCNC(=O)Cn1nc(CC)n2c(cc3c(OC)cccc32)c1=O
activity change (%): -9.3

compound: COc1ccc(-c2c3c(=O)n(C)c(=O)n(C)c3c3n2-c2ccccc2NC3c2ccco2)cc1 (stereo not given)
activity change (%): 20.92

compound: COc1ccc(S(=O)(=O)Nc2cc3c(cc2N2CCOCC2)n(C)c(=O)n3C)cc1
activity change (%): -5.65

compound: COc1ccc2c(C)c(CCC(=O)NCCc3ccc(OC)c(OC)c3)c(=O)oc2c1
activity change (%): -28.5

compound: O=C(NCc1ccccc1Cl)c1ccc2c(c1)NC(=O)C(CS(=O)(=O)Cc1ccc(F)cc1Cl)N2 (stereo not given)
activity change (%): -37.03

compound: CCc1ccc(NC(=O)CC2C(=O)N(c3ccc(OC)cc3)C(=O)N2Cc2cccs2)cc1 (stereo not given)
activity change (%): -27.02

compound: COc1ccc(C2=C(N3CCN(c4cc(C)ccc4C)CC3)c3ccccc3C2=O)cc1
activity change (%): -2.859

compound: CCOC(=O)Cc1ccc(NC(=O)n2ncc3c(C)cccc32)cc1
activity change (%): -77.93

compound: CCOc1ccc(-c2nc3c(c(CC)nn3-c3ccccc3)c3cc(OC)c(OC)cc23)cc1
activity change (%): -6.761

compound: Cc1ccc(NC(=O)c2c(C)oc3ccc(O)c(CN4CCOCC4)c23)cc1
activity change (%): -21.91

3 of the entries, repeated:

O=C(NCc1ccccc1Cl)c1ccc2c(c1)NC(=O)C(CS(=O)(=O)Cc1ccc(F)cc1Cl)N2 (stereo not given) gave activity change -37.03%.
Cn1c(=O)c2c(-c3ccccc3)n3c(c2n(C)c1=O)C(c1ccc([N+](=O)[O-])cc1)Nc1ccccc1-3 (stereo not given) gave activity change -18.34%.
COc1ccc2c(c1)CCc1c(C(=O)Nc3ccc(F)c(Cl)c3)noc1-2 gave activity change 13.92%.

Data taken from PubChem BioAssay AID1508623, deposited by NCATS (2021).